In paper PMC5383037:
These are yes or no findings as the source states them, for the method shown. Binding seen in cells or lysates may run through a third protein. Some binding calls cover weakened binding; strength is not graded here.

Chains of the proteins cited; added tags and fusions are not shown. Lines headed by an entry give the natural chain unless they say otherwise; changes in a name come on top.
UniProt P62491: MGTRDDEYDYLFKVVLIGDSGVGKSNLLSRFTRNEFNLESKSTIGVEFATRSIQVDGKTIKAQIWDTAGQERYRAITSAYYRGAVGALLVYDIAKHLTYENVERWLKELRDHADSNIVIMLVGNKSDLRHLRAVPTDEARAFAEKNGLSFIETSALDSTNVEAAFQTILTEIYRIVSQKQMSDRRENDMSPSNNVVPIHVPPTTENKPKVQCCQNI

Experiments:
GST-Rab11A-Q70L = GST-Rab11A-Q70L (UniProt P62491); assay: pull-down; GST fusion proteins coupled to glutathione-Sepharose 4B beads (10 uL wet volume) incubated with 100 uL COS-7 lysate containing the T7-tagged protein; lysis buffer 50 mM HEPES-KOH pH 7.2, 150 mM NaCl, 1 mM MgCl2, 1% Triton X-100; washed 3 times with the same buffer at 0.2% Triton X-100; anti-T7 immunoblot; only the target purified
GST-Rab11A-S25N = GST-Rab11A-S25N (UniProt P62491); assay: as above

binding (GST-Rab11A-Q70L) | binding (GST-Rab11A-S25N) | Binder
binds | no binding | T7-TBC1D12 (protein, UniProt O60347 1-775) MVGPEDAGACSGRNPKLLPVPAPDPVGQDRKVIRATGGFGGGVGAVEPPEEADEEEEADEEEETPPRQLLQRYLAAAGEQLEPGLCYCPLPAGQAGAPPPSAAPRSDACLLGSGSKHRGAEVADGRAPRHEGMTNGDSGFLPGRDCRDLEEARGLARAGGRESRRRRPYGRLRLEGPGDEDADGAGSPSDWASPLEDPLRSCCLVAADAQEPEGAGSDSGDSPASSCSSSEDSEQRGVGAGGPEEGAPPATSAERTNGGAEPRLGFSDIHFNSRNTFQVSRGQSARDHLPPAGPPVPLPAAEQGPAGASARARRSGGFADFFTRNLFPKRTKELKSVVHSAPGWKLFGKVPPRENLQKTSKIIQQEYEARTGRTCKPPPQSSRRKNFEFEPLSTTALILEDRPSNLPAKSVEEALRHRQEYDEMVAEAKKREIKEAHKRKRIMKERFKQEENIASAMVIWINEILPNWEVMRSTRRVRELWWQGLPPSVRGKVWSLAVGNELNITPELYEIFLSRAKERWKSFSETSSENDTEGVSVADREASLELIKLDISRTFPSLYIFQKGGPYHDVLHSILGAYTCYRPDVGYVQGMSFIAAVLILNLEEADAFIAFANLLNKPCQLAFFRVDHSMMLKYFATFEVFFEENLSKLFLHFKSYSLTPDIYLIDWIFTLYSKSLPLDLACRVWDVFCRDGEEFLFRTGLGILRLYEDILLQMDFIHIAQFLTKLPEDITSEKLFSCIAAIQMQNSTKKWTQVFASVMKDIKEGDKNSSPALKS
binds | – | T7-TBC1D12-M (domain or fragment, UniProt O60347 278-490) QVSRGQSARDHLPPAGPPVPLPAAEQGPAGASARARRSGGFADFFTRNLFPKRTKELKSVVHSAPGWKLFGKVPPRENLQKTSKIIQQEYEARTGRTCKPPPQSSRRKNFEFEPLSTTALILEDRPSNLPAKSVEEALRHRQEYDEMVAEAKKREIKEAHKRKRIMKERFKQEENIASAMVIWINEILPNWEVMRSTRRVRELWWQGLPPSVR
no binding | – | T7-TBC1D12-N (domain or fragment, UniProt O60347 1-277) MVGPEDAGACSGRNPKLLPVPAPDPVGQDRKVIRATGGFGGGVGAVEPPEEADEEEEADEEEETPPRQLLQRYLAAAGEQLEPGLCYCPLPAGQAGAPPPSAAPRSDACLLGSGSKHRGAEVADGRAPRHEGMTNGDSGFLPGRDCRDLEEARGLARAGGRESRRRRPYGRLRLEGPGDEDADGAGSPSDWASPLEDPLRSCCLVAADAQEPEGAGSDSGDSPASSCSSSEDSEQRGVGAGGPEEGAPPATSAERTNGGAEPRLGFSDIHFNSRNTF
